{"source": "PubChem BioAssay AID1259424 – University of Nebraska Medical Center | 2018", "aim": "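Rank knockdowns across the genome by resemblance to the KSR1 depletion profile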 (primary screen)", "cells": "human HCT116 colon cancer cells", "knock-down reagent": "siRNA pool against human genes, 50 nM", "measured": "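Log2 levels of six mRNAs (branched-DNA multiplex), adjusted by two reference genes and the non-targeting median, then scored against the average KSR1 knockdown pattern as Pearson r and euclidean distance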", "scale": "mean correlation with KSR1 profile: higher = expression change more like KSR1 knockdown", "note": "The whole screen tested about 14,000 reagents; shown is a random part of them. 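Higher correlation or smaller distance means closer resemblance to KSR1 loss; control wells, including KSR1 knockdowns, recur on many plates.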 Further read-outs or replicates are left out here. Not stated in the record: the time to read-out."}
{"target": "SIRT1", "mean correlation with KSR1 profile": 0.307}
{"target": "CD163", "mean correlation with KSR1 profile": -0.743}
{"target": "SLC17A2", "mean correlation with KSR1 profile": -0.53}
{"target": "IER5", "mean correlation with KSR1 profile": 0.574}
{"target": "MED4", "mean correlation with KSR1 profile": -0.579}
{"target": "BEND5", "mean correlation with KSR1 profile": -0.231}
{"target": "OR7E91P", "mean correlation with KSR1 profile": 0.239}
{"target": "BIN3-IT1", "mean correlation with KSR1 profile": 0.273}
{"target": "GADD45GIP1", "mean correlation with KSR1 profile": -0.379}
{"target": "DLAT", "mean correlation with KSR1 profile": 0.0978}
{"target": "PNPLA6", "mean correlation with KSR1 profile": -0.00833}
{"target": "NTF3", "mean correlation with KSR1 profile": -0.13}
{"target": "AREL1", "mean correlation with KSR1 profile": -0.134}
{"target": "ZFYVE26", "mean correlation with KSR1 profile": -0.536}
{"target": "SNTA1", "mean correlation with KSR1 profile": 0.715}
{"target": "ADAM8", "mean correlation with KSR1 profile": -0.403}
{"target": "SUPT4H1", "mean correlation with KSR1 profile": 0.48}
{"target": "ADCYAP1R1", "mean correlation with KSR1 profile": 0.83}
{"target": "PTTG1", "mean correlation with KSR1 profile": 0.587}
